Experimental data: patent US20230382910A1, “HETEROARYL COMPOUNDS FOR THE TREATMENT OF PAIN” (VERTEX PHARMACEUTICALS INCORPORATED, priority 2022, published 2023)
Some entries share one result that the patent states for a list of compounds.

The chains behind the UniProt entries cited, without tags or fusion partners. Residues count along the entry.
UniProt Q9Y5Y9, 660-890 limits assumed: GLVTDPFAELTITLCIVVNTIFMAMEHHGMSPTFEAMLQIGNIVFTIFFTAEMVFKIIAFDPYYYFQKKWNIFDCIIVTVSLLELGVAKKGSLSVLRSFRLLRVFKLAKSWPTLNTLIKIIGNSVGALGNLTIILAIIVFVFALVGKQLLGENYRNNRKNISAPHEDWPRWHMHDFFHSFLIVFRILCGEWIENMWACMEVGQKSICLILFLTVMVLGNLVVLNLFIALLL
UniProt Q9Y5Y9, 1148-1722 limits assumed: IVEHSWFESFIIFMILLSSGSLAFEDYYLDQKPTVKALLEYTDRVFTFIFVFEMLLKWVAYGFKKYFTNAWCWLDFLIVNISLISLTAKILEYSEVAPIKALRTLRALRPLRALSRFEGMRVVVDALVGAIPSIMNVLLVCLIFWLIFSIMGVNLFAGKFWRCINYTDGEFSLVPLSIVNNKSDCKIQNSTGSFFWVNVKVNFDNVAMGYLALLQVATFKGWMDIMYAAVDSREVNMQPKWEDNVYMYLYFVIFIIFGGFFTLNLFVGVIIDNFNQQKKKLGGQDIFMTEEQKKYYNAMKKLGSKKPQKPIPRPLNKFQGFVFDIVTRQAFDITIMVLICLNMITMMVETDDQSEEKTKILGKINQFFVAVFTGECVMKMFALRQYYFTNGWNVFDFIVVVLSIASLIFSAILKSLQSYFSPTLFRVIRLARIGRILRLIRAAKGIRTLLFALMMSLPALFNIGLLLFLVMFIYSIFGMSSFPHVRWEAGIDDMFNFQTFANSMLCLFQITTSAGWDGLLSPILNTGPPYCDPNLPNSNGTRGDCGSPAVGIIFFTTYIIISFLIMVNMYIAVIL
UniProt Q9Y5Y9, 126-399 limits assumed: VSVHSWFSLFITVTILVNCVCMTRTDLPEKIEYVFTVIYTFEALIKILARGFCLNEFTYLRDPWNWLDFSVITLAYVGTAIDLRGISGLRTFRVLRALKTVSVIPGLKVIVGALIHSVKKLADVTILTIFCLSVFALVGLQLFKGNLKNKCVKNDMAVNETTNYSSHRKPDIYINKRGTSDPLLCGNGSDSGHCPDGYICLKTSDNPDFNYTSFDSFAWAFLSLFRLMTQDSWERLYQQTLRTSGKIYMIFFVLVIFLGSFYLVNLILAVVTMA

Molecular target: human NaV 1.8 (Homo sapiens, UniProt Q9Y5Y9)
Assay: E-VIPR Assay Detecting and Measuring NaV Inhibition Properties
Assay type: cell-based
Conditions: HEK cells expressing a truncated form of human NaV 1.8; electrical stimulation, membrane potential FRET dyes; read-out: measured IC50 value in the E-VIPR Assay
From the text: E-VIPR Assay Detecting and Measuring NaV Inhibition Properties
Sodium ion channels are voltage-dependent proteins that can be activated by inducing membrane voltage changes by applying electric fields. The electrical stimulation instrument and methods of use, referred to as E-VIPR, are described in International Publication No. WO 2002/008748 A3 and C.-J. Huang et al. Characterization of voltage-gated sodium channel blockers by electrical stimulation and fluorescence detection of membrane potential, 24 Nature Biotech. 439-46 (2006), both of which are incorporated by reference in their entirety. The instrument comprises a microtiter plate handler, an optical system for exciting the coumarin dye while simultaneously recording the coumarin and oxonol emissions, a waveform generator, a current- or voltage-controlled amplifier, and parallel electrode pairs that are inserted into assay plate wells. Under integrated computer control, this instrument passes user-programmed electrical stimulus protocols to cells within the wells of the microtiter plate.
16-20 hours prior to running the assay on E-VIPR, HEK cells expressing a truncated form of human NaV 1.8 with full channel activity were seeded into microtiter 384-well plates, pre-coated with matrigel, at a density of 25,000 cells per well. 2.5-5% KIR2.1 BacMam virus was added to the final cell suspension before seeding into cell plates. HEK cells were grown in Dulbecco's Modified Eagle's Medium (DMEM) supplemented with 10% FBS (Fetal Bovine Serum, qualified; Sigma #F4135), 1% NEAA (Non-Essential Amino Acids, Gibco #11140), 1% HEPES (Gibco #15630), 1% Pen-Strep (Penicillin-Streptomycin; Gibco #15140) and 5 μg/ml Blasticidin (Gibco #R210-01). Cells were expanded in 5-layer CellSTACK culture chambers or cell culture flasks with vented caps, with 90-95% humidity and 5% CO2.
Compound Loading Buffer (2× concentration): Na/TMA Cl Bath1 Buffer containing HS (omitted in experiments run in the absence of human serum (HS)) 50%, VABSC-1 1 mM, BSA 0.2 mg/ml (in Bath-1), KCl 9 mM, DMSO 0.625%.
Assay Protocol (7 Key Steps):
1) To reach the final concentration in each well, 375 nL of each compound was pre-spotted (in neat DMSO) into polypropylene compound plates at 240× desired final concentration from an intermediate stock concentration of 0.075 mM, in an 11-point dose response, 3-fold dilution, resulting in a top dose of 300 nM final concentration in the cell plate. Vehicle control (neat DMSO), and positive control (an established NaV1.8 inhibitor, 25 μM final in assay in DMSO) were added manually to the outermost columns of each plate respectively. The compound plate was backfilled with 45 μL per well of Compound Loading Buffer resulting in a 240-fold dilution of compound following a 1:1 transfer of compound into the cell plate (see Step 6). Final DMSO concentration for all wells in the assay was 0.625% (0.75% DMSO was supplemented to the Compound Loading Buffer for a final DMSO concentration of 0.625%). This assay dilution protocol was adjusted to enable a higher dose range to be tested in the presence of HS or if the final assay volume was altered.
2) Hexyl Dye Solution was prepared.
3) Cell plates were prepared. On the day of the assay, the media was aspirated, and the cells were washed three times with 80 μL of Bath-1 buffer, maintaining 25 μL residual volume in each well.
4) 25 μL per well of Hexyl Dye Solution was dispensed into the cell plates. The cells were incubated for 20 minutes at room temperature or ambient conditions in darkness.
5) 45 μL per well of Compound Loading Buffer was dispensed into compound plates.
6) The cell plates were washed three times with 80 μL per well of Bath-1 Buffer, leaving 25 µL of residual volume. Then 25 μL per well from compound plate was transferred to each cell plate. The mixture was incubated for 30 minutes at room temperature/ambient conditions. […]

Compound | IC50 [nM]
Cc1cc(C2(C(F)(F)F)CC2)ccc1-c1cc(=O)c2cc(F)ccc2[nH]1 [Compound 90, 6-fluoro-2-[2-methyl-4-[1-(trifluoromethyl)cyclopropyl]phenyl]-1H-quinolin-4-one] | < 500
CCc1c(C)cc(-c2cc(=O)c3cc(F)ccc3[nH]2)cc1C [Compound 91, 2-(4-ethyl-3,5-dimethyl-phenyl)-6-fluoro-1H-quinolin-4-one] | ≥ 5000
Cc1cc(C(C)(C)C)ccc1-c1cc(=O)c2cnccc2[nH]1 [Compound 92, 2-(4-tert-butyl-2-methyl-phenyl)-1H-1,6-naphthyridin-4-one] | < 500
Cc1cc(C2(C(F)(F)F)CC2)ccc1-c1cc(=O)c2cnccc2[nH]1 [Compound 93, 2-[2-methyl-4-[1-(trifluoromethyl)cyclopropyl]phenyl]-1H-1,6-naphthyridin-4-one] | < 500
Cc1cc(C2CC(F)(F)C2)ccc1-c1cc(=O)c2cc(F)ccc2[nH]1 [Compound 94, 2-[4-(3,3-difluorocyclobutyl)-2-methyl-phenyl]-6-fluoro-1H-quinolin-4-one] | < 500
Cc1cc(C(C)(C)C)ccc1-c1cc(=O)c2ncccc2[nH]1 [Compound 95, 2-(4-tert-butyl-2-methyl-phenyl)-1H-1,5-naphthyridin-4-one] | < 500
CCc1cc(C(C)(C)C)ccc1-c1cc(=O)c2cc(F)ccc2[nH]1 [Compound 96, 2-(4-tert-butyl-2-ethyl-phenyl)-6-fluoro-1H-quinolin-4-one] | < 500
CCc1cc(C(C)(C)C)ccc1-c1cc(=O)c2cnccc2[nH]1 [Compound 97, 2-(4-tert-butyl-2-ethyl-phenyl)-1H-1,6-naphthyridin-4-one] | < 500
COc1cc(C(C)(C)C)ccc1-c1cc(=O)c2cnccc2[nH]1 [Compound 98, 2-(4-tert-butyl-2-methoxy-phenyl)-1H-1,6-naphthyridin-4-one] | < 500
COc1ccc2[nH]c(-c3ccc(C(C)(C)C)cc3C)cc(=O)c2n1 [Compound 99, 2-(4-tert-butyl-2-methyl-phenyl)-6-methoxy-1H-1,5-naphthyridin-4-one] | < 500
CCC(C)(C)c1ccc(-c2cc(=O)c3cnccc3[nH]2)c(C)c1 [Compound 100, 2-[4-(1,1-dimethylpropyl)-2-methyl-phenyl]-1H-1,6-naphthyridin-4-one] | < 500
Cc1cc(C2(C(F)(F)F)CC2)ccc1-c1cc(=O)c2ncccc2[nH]1 [Compound 101, 2-[2-methyl-4-[1-(trifluoromethyl)cyclopropyl]phenyl]-1H-1,5-naphthyridin-4-one] | < 500
Cc1nc(C(C)(C)C)ccc1-c1cc(=O)c2cnccc2[nH]1 [Compound 102, 2-(6-tert-butyl-2-methyl-3-pyridyl)-1H-1,6-naphthyridin-4-one] | < 500
Cc1cc(C(C)(C)C)ccc1-c1cc(=O)c2c(ccc[n+]2[O-])[nH]1 [Compound 103, 2-(4-tert-butyl-2-methyl-phenyl)-5-oxido-1H-1,5-naphthyridin-5-ium-4-one] | < 500
COc1cc(Cl)cc(C)c1-c1cc(=O)c2ccccc2[nH]1 [Compound 104, 2-(4-chloro-2-methoxy-6-methyl-phenyl)-1H-quinolin-4-one] | ≥ 5000
Cc1cc(C(C)(C)C)ccc1-c1cc(=O)c2c(C#N)cccc2[nH]1 [Compound 105, 2-(4-tert-butyl-2-methyl-phenyl)-4-oxo-1H-quinoline-5-carbonitrile] | < 500
COC(=O)c1ccc2[nH]c(-c3ccc(C(C)(C)C)cc3C)cc(=O)c2c1 [Compound 106, methyl 2-(4-tert-butyl-2-methyl-phenyl)-4-oxo-1H-quinoline-6-carboxylate] | ≥ 5000
Cc1nc(C(C)(C)C)ccc1-c1cc(=O)c2cc(F)ccc2[nH]1 [Compound 108, 2-(6-tert-butyl-2-methyl-3-pyridyl)-6-fluoro-1H-quinolin-4-one] | < 500
COc1cc(C(C)(C)C)ccc1-c1cc(=O)c2c(C#N)cccc2[nH]1 [Compound 109, 2-(4-tert-butyl-2-methoxy-phenyl)-4-oxo-1H-quinoline-5-carbonitrile] | < 500
